Experimental data published in paper PMC8780828 (Viruses, 2021).

Test: in vitro
Settings: human

SMILES: C[C@H]1O[C@@H](O[C@H]2[C@@H](O)C[C@H](O[C@H]3[C@@H](O)C[C@H](O[C@H]4CC[C@@]5(C)[C@H](CC[C@@H]6[C@@H]5C[C@@H](O)[C@]5(C)[C@@H](C7=CC(=O)OC7)CC[C@]65O)C4)O[C@@H]3C)O[C@@H]2C)C[C@H](O)[C@@H]1O [Digoxin, reference compound]
- efflux ratio (Caco-2): 37.9
- Papp B→A (Caco-2, B-to-A Papp (cell batch quality control)): 12.9 ×10⁻⁶ cm/s
